Experimental data as given in patent US20250149635A1, “SILICATE PLATFORM AS WEAKLY-COORDINATING ANIONS FOR DIVERSE ORGANOMETALLIC TRANSFORMATIONS AND ELECTROCHEMICAL APPLICATIONS” (California Institute of Technology, priority 2023, published 2025).

Assay: Cyclic voltammetry of Mg deposition/stripping in DME
Type: physicochemical
Details: for coulombic efficiency: 0.25-0.26 M in DME with 10 mM Me2Mg, 100 cycles
Description: FIG. 14A: Cyclic voltammetry experiments of 0.26 M 1-[Mg(DME)3] with 10 mM of Me2Mg. WE: Pt wire; CE: Mg strip; RE: Mg strip; Scan rate: 25 mVs^−1; Cycling protocol: −0.8 V to 4.0 V, 100 cycles. FIG. 14B: Cycles 1, 25, 50, 75, 100. FIG. 14C: Coulombic efficiency cycles 1-100; Cyclic voltammetry experiments of 0.26 M 1-[Mg(DME)3] with 10 mM of Me2Mg.
FIG. 15A: Cyclic voltammetry experiments of 0.25 M 2-[Mg(DME)3] with 10 mM of Me2Mg. WE: Pt wire; CE: Mg strip; RE: Mg strip; Scan rate: 25 mVs^−1; Cycling protocol: −0.8 V to 3.8 V, 100 cycles; FIG. 15B: Cycles 1, 25, 50, 75, 100. FIG. 15C: Coulombic efficiency cycles 1-100; Cyclic voltammetry experiments of 0.25 M 2-[Mg(DME)3] with 10 mM of Me2Mg.
FIG. 20: Cyclic voltammetry experiments of 0.26 M 1-[Mg(DME)3] in DME.WE: Pt wire; CE: Mg strip; RE: Mg strip; Scan rate: 25 mVs^−1; Cycling protocol: −0.8 V to 4.0 V, 200 cycles.
Cyclic voltammetry experiments of 1-[Mg(DME)3] were run in an empty N2-filled glovebox fitted with a purifier system that consists of a purifier cartridge (ca. 50% activated 4 Å molecular sieves and activated Cu catalyst) and a circulator fan, no solvent or chemicals were stored in the glovebox. Electrolyte solutions were prepared in a separate glovebox by dissolving 1-[Mg(DME)3] in 500 μL of DME and stirred with a new Teflon stir bar until complete dissolution. DME and 1-[Mg(DME)3] were only used with the glovebox circulation purifier turned off after extensive (minimum 20 minutes at […] above atmospheric pressure to ensure full atmosphere exchange) purging of the glovebox atmosphere to avoid cross-contamination with other atmospheric solvents. Upon complete dissolution of the electrolyte, the electrolyte solution was sealed and transported to the electrochemistry glovebox immediately before electrochemical experiments were performed.
Mg electrodes (99.9%, MTI) were polished with a razor blade immediately before use. Pt electrodes (wire, 0.5 mm diameter, 99.995%, Thermo Scientific) were soaked in concentrated HNO3 for at least 72 hours, rinsed with deionized water at least thrice, annealed with an H2 torch, and immediately brought into the glovebox in a flame-dried 20 mL scintillation vial while hot. Cyclic voltammetry experiments of 1-[Mg(DME)3] were performed in glass cells with 0.5 mL of electrolyte. A Pt wire served as the working electrode (WE), and Mg foils were the counter and reference electrodes (CE and RE). Experiments of 1-[Mg(DME)3] were conducted on either a Biologic SP150 potentiostat or a Biologic VSP-300 potentiostat.

With `COCCOC.COCCOC.COCCOC.C[Si-]12(OC(C(F)(F)F)(C(F)(F)F)C(C(F)(F)F)(C(F)(F)F)O1)OC(C(F)(F)F)(C(F)(F)F)C(C(F)(F)F)(C(F)(F)F)O2.C[Si-]12(OC(C(F)(F)F)(C(F)(F)F)C(C(F)(F)F)(C(F)(F)F)O1)OC(C(F)(F)F)(C(F)(F)F)C(C(F)(F)F)(C(F)(F)F)O2.[Mg+2]` [1-[Mg(DME)3], [Mg(DME)3][^MeSi^F24]2] the coulombic efficiency was “ca. 97%”, the “Mg deposition and stripping (in words)” value (0.26 M in DME with addition of 10 mM Me2Mg) was “remarkably stable, conditioning-free Mg deposition and stripping from cycle 1” and the “Mg deposition and stripping (in words)” value (0.26 M solution in DME, no Me2Mg) was “reversible deposition and stripping of Mg from cycle 1”.
In the case of [Mg(DME)3][^PhSi^F24]2 [2-[Mg(DME)3]], the coulombic efficiency is reported as “ca. 99%”.
